The record followed here is the supplement of paper PMC11348887.

SMILES strings stand for the structures. Counter-ions that a name gives are not always drawn. This is one part of the list. Small differences around the control level are noise.

What all share (settings): 5 µM; treatment: days 7-14 after plating, readout day 21
In assay [1] the test system is hPSC-derived cortical neurons (WA09). Description: nucleus area z-score vs screen plate; higher = larger nuclei (more mature).
The test system is the same in assay [2]. Description: total neurite length per nucleus (MAP2) z-score; higher = more neurite growth.
Assay [3] has the same test system. The assay can be described thus: nucleus roundness z-score vs screen plate; higher = rounder nuclei (more mature).
Assay [4] has the same test system. Description: KCl-induced FOS+/EGR-1+ double-positive nuclei fraction z-score (KCl minus unstimulated); higher = stronger activity-induced IEG response.

For `O=C(O)CSc1cc(NS(=O)(=O)c2ccc(Br)cc2)c2ccccc2c1O`, the nucleus area z-score in assay [1] was -2.14. Also, the “total neurite length per nucleus (z-score)” value in assay [2] was -0.867. This compound also came in with a nucleus roundness z-score in assay [3] of -2.72. For the same compound, the “KCl-induced FOS+/EGR-1+ double-positive nuclei fraction z-score” value in assay [4] is -0.137.

`N#C/C(=C\c1ccc(O)c(O)c1)C(=O)NCc1ccccc1` [AG-490 (Tyrphostin B42)] yielded a nucleus area z-score in assay [1] of 1.04. Also, in assay [2], the “total neurite length per nucleus (z-score)” value is -0.721. The nucleus roundness z-score in assay [3] was -0.822. In addition, in assay [4], the “KCl-induced FOS+/EGR-1+ double-positive nuclei fraction z-score” value was -0.605.

In turn, `COc1ccc(CN(CCN(C)C)c2ccccn2)cc1` [Pyrilamine Maleate] showed a nucleus area z-score in assay [1] of 2.51. Moreover, the “total neurite length per nucleus (z-score)” value in assay [2] was 0.925. The compound also had a nucleus roundness z-score in assay [3] of -0.0156. Moreover, the “KCl-induced FOS+/EGR-1+ double-positive nuclei fraction z-score” value in assay [4] amounted to 0.927.

`C[C@H]1O[C@@H](O[C@H]2[C@@H](O)C[C@H](O[C@H]3[C@@H](O)C[C@H](O[C@H]4CC[C@@]5(C)[C@H](CC[C@@H]6[C@@H]5C[C@@H](O)[C@]5(C)[C@@H](C7=CC(=O)OC7)CC[C@]65O)C4)O[C@@H]3C)O[C@@H]2C)C[C@H](O)[C@@H]1O` [Digoxin] came in with a nucleus area z-score in assay [1] of -5.89. In addition, in assay [2], the “total neurite length per nucleus (z-score)” value is -2.17. The same compound displayed a nucleus roundness z-score in assay [3] of -3.89. Besides, the “KCl-induced FOS+/EGR-1+ double-positive nuclei fraction z-score” value in assay [4] is -2.79.

`COc1cc2ncc(-c3ccccc3)nc2cc1OC` [Tyrphostin AG 1296]: the nucleus area z-score in assay [1] was 0.155. Besides, the “total neurite length per nucleus (z-score)” value in assay [2] came to 0.471. Moreover, the nucleus roundness z-score in assay [3] worked out at 0.382. Also, the “KCl-induced FOS+/EGR-1+ double-positive nuclei fraction z-score” value in assay [4] was 3.

With `O=C1NC(=O)C(c2ccccc2)(c2ccccc2)N1` [Phenytoin], the nucleus area z-score in assay [1] was found to be 0.269. The “total neurite length per nucleus (z-score)” value in assay [2] was found to be 0.507. Also, the nucleus roundness z-score in assay [3] was -0.481. The “KCl-induced FOS+/EGR-1+ double-positive nuclei fraction z-score” value in assay [4] amounted to 1.04.

In assay [1], `O=c1[nH]c(=O)n(C2CC(O)C(CO)O2)cc1Br` (centres undefined) [Bromodeoxyuridine (BrdU)] returned a nucleus area z-score of -0.658. Moreover, in assay [2], the “total neurite length per nucleus (z-score)” value amounted to 0.312. This compound also showed a nucleus roundness z-score in assay [3] of 0.1. In assay [4], the “KCl-induced FOS+/EGR-1+ double-positive nuclei fraction z-score” value was -0.0517.

Take `CNC(=O)[C@H](Cc1c[nH]c2ccccc12)NC(=O)[C@@H](CC(=O)NO)CC(C)C` [Ilomastat (GM6001, Galardin)]: the nucleus area z-score in assay [1] is -0.757. Besides, in assay [2], the “total neurite length per nucleus (z-score)” value was -0.92. The compound further showed a nucleus roundness z-score in assay [3] of 0.099. The “KCl-induced FOS+/EGR-1+ double-positive nuclei fraction z-score” value in assay [4] was found to be 0.904.

With `OC(c1cc(C(F)(F)F)nc2c(C(F)(F)F)cccc12)C1CCCCN1` (centres undefined) [Mefloquine HCl], the nucleus area z-score in assay [1] came to 2.46. Also, the “total neurite length per nucleus (z-score)” value in assay [2] is -3.17. This compound also returned a nucleus roundness z-score in assay [3] of -5.89. The “KCl-induced FOS+/EGR-1+ double-positive nuclei fraction z-score” value in assay [4] is -7.14.

In assay [1], `Cc1cccc(Nc2ccncc2S(=O)(=O)NC(=O)NC(C)C)c1` [Torsemide] had a nucleus area z-score of -0.281. Besides, the “total neurite length per nucleus (z-score)” value in assay [2] is -0.502. Further, in assay [3], the nucleus roundness z-score is -0.415. Also, in assay [4], the “KCl-induced FOS+/EGR-1+ double-positive nuclei fraction z-score” value is 0.928.

The compound `CCCCC(=O)O[C@]1(C(=O)CO)[C@@H](C)C[C@H]2[C@@H]3CCC4=CC(=O)C=C[C@]4(C)[C@@]3(F)[C@@H](O)C[C@@]21C` [Betamethasone Valerate] displayed a nucleus area z-score in assay [1] of -0.0285. For the same compound, in assay [2], the “total neurite length per nucleus (z-score)” value was 0.991. Moreover, the nucleus roundness z-score in assay [3] is 1.06. In assay [4], the “KCl-induced FOS+/EGR-1+ double-positive nuclei fraction z-score” value is -0.262.

`Cc1ccc(OCC(O)C(C)NC(C)C)c2c1CCC2` (centres undefined) yielded a nucleus area z-score in assay [1] of 0.078. The “total neurite length per nucleus (z-score)” value in assay [2] is -0.228. Besides, in assay [3], the nucleus roundness z-score is -0.466. Also, in assay [4], the “KCl-induced FOS+/EGR-1+ double-positive nuclei fraction z-score” value was -0.358.

As for `CC(C)(C)c1ccc(S(=O)(=O)/C=C/C#N)cc1`, in assay [1], the nucleus area z-score was determined as 0.0613. Further, in assay [2], the “total neurite length per nucleus (z-score)” value came to 0.0299. The same compound displayed a nucleus roundness z-score in assay [3] of 0.687. Moreover, in assay [4], the “KCl-induced FOS+/EGR-1+ double-positive nuclei fraction z-score” value is -0.361.

`Cc1ccc(C(=O)c2cc(O)c(O)c([N+](=O)[O-])c2)cc1` [Tolcapone] had a nucleus area z-score in assay [1] of 1.41. Moreover, in assay [2], the “total neurite length per nucleus (z-score)” value was 0.113. Further, in assay [3], the nucleus roundness z-score turned out to be 0.183. The “KCl-induced FOS+/EGR-1+ double-positive nuclei fraction z-score” value in assay [4] came to 0.919.

Consider `Clc1ccc(C(Cn2ccnc2)OCc2ccc(Sc3ccccc3)cc2)c(Cl)c1` (centres undefined) [Fenticonazole Nitrate], for which the nucleus area z-score in assay [1] is -2.17. Also, in assay [2], the “total neurite length per nucleus (z-score)” value is -1.52. In addition, the nucleus roundness z-score in assay [3] is -1.52. Also, the “KCl-induced FOS+/EGR-1+ double-positive nuclei fraction z-score” value in assay [4] turned out to be 0.858.

Take `CCc1c2c(nc3ccc(O)cc13)-c1cc3c(c(=O)n1C2)COC(=O)[C@]3(O)CC`: the nucleus area z-score in assay [1] is -0.266. In assay [2], the “total neurite length per nucleus (z-score)” value was -1.62. In addition, the nucleus roundness z-score in assay [3] is -1.35. The “KCl-induced FOS+/EGR-1+ double-positive nuclei fraction z-score” value in assay [4] was -1.34.

Consider `Nc1ncnc2c1C(=O)N(c1ccc([C@H]3CC[C@H](CC(=O)O)CC3)cc1)CCO2`, for which, in assay [1], the nucleus area z-score worked out at 0.313. In addition, the “total neurite length per nucleus (z-score)” value in assay [2] was found to be 0.756. In assay [3], this compound displayed a nucleus roundness z-score of 0.452. In assay [4], the “KCl-induced FOS+/EGR-1+ double-positive nuclei fraction z-score” value turned out to be 1.82.

With `CCC[C@H](NC(=O)/C(C#N)=C/c1cccc(Br)n1)c1ccccc1` [Degrasyn (WP1130)], the nucleus area z-score in assay [1] is 0.973. Besides, the “total neurite length per nucleus (z-score)” value in assay [2] is -0.873. This compound showed a nucleus roundness z-score in assay [3] of -0.258. Besides, the “KCl-induced FOS+/EGR-1+ double-positive nuclei fraction z-score” value in assay [4] was -0.322.

Compound `C[C@]12CC[C@@H]3c4ccc(O)cc4CC[C@H]3[C@@H]1CCC2=O` [Estrone] returned a nucleus area z-score in assay [1] of 0.511. Also, the “total neurite length per nucleus (z-score)” value in assay [2] was determined as 0.865. The nucleus roundness z-score in assay [3] was determined as 1.4. Further, the “KCl-induced FOS+/EGR-1+ double-positive nuclei fraction z-score” value in assay [4] amounted to 0.954.

In assay [1], `NC1(Cc2ccc(Cl)cc2)CCN(c2ncnc3[nH]ccc23)CC1` registered a nucleus area z-score of -0.152. Besides, in assay [2], the “total neurite length per nucleus (z-score)” value is -1.4. In assay [3], this compound registered a nucleus roundness z-score of -1.34. The “KCl-induced FOS+/EGR-1+ double-positive nuclei fraction z-score” value in assay [4] was -2.08.

`CCCc1cc(-c2nc(-c3ccc(C)cc3)cs2)ccn1` [Fatostatin HBr] returned a nucleus area z-score in assay [1] of 0.811. For the same compound, the “total neurite length per nucleus (z-score)” value in assay [2] is -0.417. For the same compound, the nucleus roundness z-score in assay [3] is -1.08. Further, in assay [4], the “KCl-induced FOS+/EGR-1+ double-positive nuclei fraction z-score” value is -0.177.

In assay [1], `CC(C)CN(C[C@@H](O)[C@H](Cc1ccccc1)NC(=O)O[C@H]1CO[C@H]2OCC[C@H]21)S(=O)(=O)c1ccc(N)cc1` [Darunavir Ethanolate] displayed a nucleus area z-score of 1.05. The “total neurite length per nucleus (z-score)” value in assay [2] is -0.64. The compound further yielded a nucleus roundness z-score in assay [3] of -0.09. Moreover, the “KCl-induced FOS+/EGR-1+ double-positive nuclei fraction z-score” value in assay [4] was -1.45.

In turn, `NCCC(O)(P(=O)(O)O)P(=O)(O)O` [Pamidronate Disodium] returned a nucleus area z-score in assay [1] of 0.154. Moreover, the “total neurite length per nucleus (z-score)” value in assay [2] amounted to 0.34. This compound yielded a nucleus roundness z-score in assay [3] of 0.19. The “KCl-induced FOS+/EGR-1+ double-positive nuclei fraction z-score” value in assay [4] was found to be 1.9.

In turn, `N#Cc1cc2cc(CN3CCC(Nc4ncnc5sc(CC(F)(F)F)cc45)CC3)ccc2[nH]1` returned a nucleus area z-score in assay [1] of -6.45. Moreover, the “total neurite length per nucleus (z-score)” value in assay [2] was -2.44. In assay [3], this compound had a nucleus roundness z-score of -1.98. Also, in assay [4], the “KCl-induced FOS+/EGR-1+ double-positive nuclei fraction z-score” value is -0.623.

For the compound `Nc1ccn([C@H]2CC[C@@H](CO)O2)c(=O)n1` [Zalcitabine], in assay [1], the nucleus area z-score was 0.636. In assay [2], the “total neurite length per nucleus (z-score)” value was -0.5. This compound also gave a nucleus roundness z-score in assay [3] of -0.443. The “KCl-induced FOS+/EGR-1+ double-positive nuclei fraction z-score” value in assay [4] was -0.83.

The compound `CN1CCCC(n2nc(Cc3ccc(Cl)cc3)c3ccccc3c2=O)CC1` (centres undefined) [Azelastine HCl] returned a nucleus area z-score in assay [1] of 0.0468. Moreover, the “total neurite length per nucleus (z-score)” value in assay [2] was -0.294. In addition, the nucleus roundness z-score in assay [3] is 0.0988. For the same compound, the “KCl-induced FOS+/EGR-1+ double-positive nuclei fraction z-score” value in assay [4] is -0.722.
